Reference: publication PMC5656747
No constants are given. Whether binding was seen depends on the method and setting. Binding seen in cells or lysates may run through a third protein. A yes stands for co-enrichment or nearness to the bait. Other partners may have been found. A no says only that the protein was not detected with the bait.

Sequences of proteins named here, by UniProt entry; tags and fusion partners are left off. Residues count along the entry.
UniProt P25054, residues 1265-2060: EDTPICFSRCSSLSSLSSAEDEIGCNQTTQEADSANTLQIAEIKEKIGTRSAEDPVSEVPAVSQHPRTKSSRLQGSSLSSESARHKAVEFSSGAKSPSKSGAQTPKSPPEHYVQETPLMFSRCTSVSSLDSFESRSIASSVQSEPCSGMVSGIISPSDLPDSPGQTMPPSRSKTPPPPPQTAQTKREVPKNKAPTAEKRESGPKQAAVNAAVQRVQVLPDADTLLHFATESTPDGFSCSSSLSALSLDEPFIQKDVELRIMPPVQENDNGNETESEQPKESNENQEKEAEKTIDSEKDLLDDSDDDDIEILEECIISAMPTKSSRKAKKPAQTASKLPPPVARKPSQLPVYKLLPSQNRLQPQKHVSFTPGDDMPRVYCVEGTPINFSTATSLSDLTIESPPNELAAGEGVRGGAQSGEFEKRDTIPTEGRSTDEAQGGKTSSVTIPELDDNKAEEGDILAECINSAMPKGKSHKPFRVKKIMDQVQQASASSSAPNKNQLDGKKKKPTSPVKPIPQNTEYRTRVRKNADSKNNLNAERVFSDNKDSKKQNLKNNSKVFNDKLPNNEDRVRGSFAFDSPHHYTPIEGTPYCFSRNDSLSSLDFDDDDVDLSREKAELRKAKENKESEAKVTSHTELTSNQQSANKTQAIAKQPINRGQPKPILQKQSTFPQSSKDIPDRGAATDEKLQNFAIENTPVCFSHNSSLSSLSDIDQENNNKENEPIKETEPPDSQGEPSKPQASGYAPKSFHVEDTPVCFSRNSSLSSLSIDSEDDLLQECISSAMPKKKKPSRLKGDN
UniProt O15169: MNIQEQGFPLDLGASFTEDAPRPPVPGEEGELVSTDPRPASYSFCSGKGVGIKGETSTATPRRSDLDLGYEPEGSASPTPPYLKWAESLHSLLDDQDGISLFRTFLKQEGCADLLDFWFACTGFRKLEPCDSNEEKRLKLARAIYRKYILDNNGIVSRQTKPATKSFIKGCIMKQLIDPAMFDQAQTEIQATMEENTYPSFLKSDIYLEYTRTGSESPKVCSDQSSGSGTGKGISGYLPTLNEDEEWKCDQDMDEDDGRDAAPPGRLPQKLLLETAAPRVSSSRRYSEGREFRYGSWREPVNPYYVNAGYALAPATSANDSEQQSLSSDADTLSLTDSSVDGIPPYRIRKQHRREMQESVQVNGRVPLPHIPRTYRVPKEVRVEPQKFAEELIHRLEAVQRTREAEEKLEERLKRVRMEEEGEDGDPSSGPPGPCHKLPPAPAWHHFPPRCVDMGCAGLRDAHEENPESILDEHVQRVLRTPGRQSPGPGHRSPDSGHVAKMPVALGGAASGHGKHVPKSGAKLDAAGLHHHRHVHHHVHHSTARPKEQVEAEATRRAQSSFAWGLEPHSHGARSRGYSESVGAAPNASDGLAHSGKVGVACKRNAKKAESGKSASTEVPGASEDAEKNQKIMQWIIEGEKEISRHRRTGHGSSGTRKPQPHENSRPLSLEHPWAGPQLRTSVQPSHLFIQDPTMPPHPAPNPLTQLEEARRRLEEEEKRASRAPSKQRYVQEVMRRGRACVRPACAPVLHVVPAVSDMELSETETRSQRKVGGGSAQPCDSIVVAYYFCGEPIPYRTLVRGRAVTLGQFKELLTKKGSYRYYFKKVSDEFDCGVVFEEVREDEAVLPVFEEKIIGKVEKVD
UniProt Q93009: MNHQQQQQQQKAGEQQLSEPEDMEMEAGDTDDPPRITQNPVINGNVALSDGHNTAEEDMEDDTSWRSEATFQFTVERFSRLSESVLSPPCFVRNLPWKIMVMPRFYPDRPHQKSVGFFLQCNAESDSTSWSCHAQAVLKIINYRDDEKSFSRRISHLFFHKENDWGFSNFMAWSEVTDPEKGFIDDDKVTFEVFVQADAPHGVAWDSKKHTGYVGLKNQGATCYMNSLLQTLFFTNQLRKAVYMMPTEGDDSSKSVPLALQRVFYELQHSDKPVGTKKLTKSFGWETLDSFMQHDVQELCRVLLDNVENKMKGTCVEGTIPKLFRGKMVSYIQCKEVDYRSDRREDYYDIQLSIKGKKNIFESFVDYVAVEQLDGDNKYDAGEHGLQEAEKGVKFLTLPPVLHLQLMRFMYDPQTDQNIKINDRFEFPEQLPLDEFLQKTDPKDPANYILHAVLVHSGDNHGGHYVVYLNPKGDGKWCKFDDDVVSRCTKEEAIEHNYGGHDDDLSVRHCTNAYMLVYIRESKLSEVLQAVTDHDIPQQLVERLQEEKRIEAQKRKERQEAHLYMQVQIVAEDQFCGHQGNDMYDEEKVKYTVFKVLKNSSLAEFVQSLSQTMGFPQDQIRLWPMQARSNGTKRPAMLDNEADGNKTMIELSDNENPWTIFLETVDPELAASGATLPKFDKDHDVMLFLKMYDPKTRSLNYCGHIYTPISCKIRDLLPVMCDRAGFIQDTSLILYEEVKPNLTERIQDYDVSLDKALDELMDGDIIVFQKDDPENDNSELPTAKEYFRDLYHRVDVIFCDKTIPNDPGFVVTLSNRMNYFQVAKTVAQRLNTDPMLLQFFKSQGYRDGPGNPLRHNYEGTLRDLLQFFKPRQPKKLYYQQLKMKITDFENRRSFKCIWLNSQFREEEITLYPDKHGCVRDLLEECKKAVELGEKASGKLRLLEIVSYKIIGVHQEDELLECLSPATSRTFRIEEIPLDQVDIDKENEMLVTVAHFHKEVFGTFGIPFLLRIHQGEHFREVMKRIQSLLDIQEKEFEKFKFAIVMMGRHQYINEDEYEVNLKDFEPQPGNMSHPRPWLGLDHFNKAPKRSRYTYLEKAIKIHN

Molecular target: APC WT (central region of APC, 1,265-2,060 aas), FLAG-tagged (UniProt P25054)
Experiment: affinity purification with mass spectrometry; APC WT or ΔCID expressed in human HEK293T cells; tandem affinity purification, mass spectrometry, iBAQ label-free quantification

Substance	binding
AXIN1 (from UniProt O15169 1-862)	binds
USP7 (ubiquitin-specific peptidase 7) (from UniProt Q93009 1-1102) (enzyme)	no binding
